Assay results taken from PubChem BioAssay AID1259415 (National Center for Advancing Translational Sciences (NCATS), 2018).
Out of some 410,000 compounds screened, about 18,000 (4.4%) were called active. This list was built around the results that the source calls inconclusive (neither active nor inactive); the mix of calls is not that of the screen. Cut-off read from the data, not from the text of the source: active = activity change below about -60%; inconclusive = no clear call, values can overlap the other calls; inactive = above about -39%.

Assay: qHTS Assay for inhibitors of the human cytomegalovirus (HCMV)
Settings: HFF cells, HCMV-luciferase reporter, 72 h; at 57.5 µM; active compounds read low
Method in brief: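 Human foreskin fibroblasts infected with luciferase-reporter HCMV at MOI 1 PFU/cell, compounds at two doses. Luciferase measured 72 h post infection; normalized to buffer-only basal and Salinomycin (10uM) controls.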
% is set by controls: 0 for no effect and ±100 for the full control effect.

Row | SMILES | activity change, negative = inhibition
1 | COc1ccccc1CNC(=O)C(=O)NCC(c1ccco1)S(=O)(=O)c1cccs1 (configuration not stated) | inactive: -3.28%
2 | CCc1ccc(CCC(=O)Nc2sc3c(c2C#N)CCCC3)o1 | active: -75%
3 | COc1cccc(N=Nc2ccc3ccccc3c2O)c1 | inactive: 34.2%
4 | C=CCn1c(C)c(/C=C/c2cc[n+](C)cc2)c2ccccc21 | active: -95.6%
5 | O=S(=O)(NC1CCCC1)c1ccc(S(=O)(=O)N2CCCN(Cc3ccccc3)C2)cc1 | inactive: -22.8%
6 | COc1ccc(-n2c(C)cc(C(=O)CCl)c2C)cc1 | active: -90.3%
7 | O=[N+]([O-])c1ccccc1S(=O)(=O)c1ccccc1[N+](=O)[O-] | inactive: 7.85%
8 | CCOC(=O)c1ccccc1NC(=O)CCOc1ccccc1 | inactive: -17.9%
9 | COc1ccc(CNC(=O)c2cc3c(=O)[nH]c4ccccc4c3s2)cc1 | inactive: -6.89%
10 | Cc1ccc(CSCCNC(=O)CN(c2cccc([N+](=O)[O-])c2)S(C)(=O)=O)cc1 | inconclusive: -41%
11 | C[C@H](NC(=O)c1nc[nH]c1C(=O)N[C@H](C)c1ccccc1)C(=O)OC(C)(C)C | inactive: -0.617%
12 | O=C(NC(=S)Nc1cc(-c2nc3ccccc3[nH]2)ccc1Cl)c1ccc2c(c1)OCO2 | active: -75.6%
13 | O=C1NC(Cc2ccc(O)cc2)c2nc3ccc(F)cc3c(=O)n2-c2cc3ccccc3cc21 (configuration not stated) | active: -101%
14 | Cc1ccc(N(Cc2cc3ccc(C)cc3[nH]c2=O)C(=O)c2ccco2)cc1 | inconclusive: -43.6%
15 | CN(c1ccccc1)P(=O)(N(C)c1ccccc1)N(C)c1ccccc1 | active: -86.4%
16 | O=C(COC(=O)c1ccc2c(c1)C(=O)N(c1cccc3ncccc13)C2=O)c1ccc(Cl)cc1 | active: -89%
17 | CCC(=O)N1CCN(c2ccc(NC(=O)c3ccc([N+](=O)[O-])o3)cc2Cl)CC1 | active: -95.6%
18 | COc1ccccc1NC(=O)Cn1c(=O)n(-c2cccc(C(C)=O)c2)c(=O)c2c3c(sc21)CN(C(C)=O)CC3 | inactive: 5.82%
19 | COc1cc2oc(=O)cc(-c3ccc(-c4ccc(O)cc4)cc3)c2c(OC)c1OC | inconclusive: -48.8%

Row | SMILES | activity change, negative = inhibition
20 | COC(=O)CN1C(=O)N/C(=C/c2ccc(OC)cc2)C1=O | inconclusive: -50.6%
21 | O=C1C2C3C=CC(O3)C2C(=O)N1N=Cc1ccc2c(c1)OCO2 (configuration not stated) | inactive: 6.72%
22 | Cc1ccc(/C=C/S(=O)(=O)NCCC(=O)NCc2ccccc2F)cc1 | inconclusive: -43%
23 | CCc1ccc(N2CCN(C(=O)N3CCOCC3)CC2)cc1 | inconclusive: -47.3%
24 | COc1ccccc1NC(=O)c1c(Nc2ccccc2F)sc(C(=O)Nc2cccc(Cl)c2)c1N | inconclusive: -49.6%
25 | CC1(C)Cc2ccccc2-c2nnc(SCc3ccccc3)n21 | inactive: -12.2%
26 | O=C1c2[nH]nc(-c3ccccc3O)c2C(c2ccc(Cl)cc2)N1Cc1ccco1 (configuration not stated) | inconclusive: -49.2%
27 | C/C(=N\O)c1ccco1 | inconclusive: -53.2%
28 | COc1cc(C=O)cc(Br)c1OCC(N)=O | inconclusive: -42.7%
29 | CCc1ccc(-n2c(SCc3ccccc3F)nc3[nH]ncc3c2=O)cc1 | inactive: -22.6%
30 | O=C(CCc1nc(CN2CCN(S(=O)(=O)c3ccc(F)cc3)CC2)no1)N1CCCCC1 | inactive: -35.8%
31 | COc1cccc(NC(=O)CSC2=Nc3ccccc3N=C(c3ccc(F)cc3)C2)c1 | inconclusive: -44.7%
32 | Cn1cc(CN2CCC(C(=O)Nc3cccc(-c4cscn4)c3)CC2)cn1 | inconclusive: -45.9%
33 | COc1ccc(-c2cn(CCN)c(-c3ccncc3)n2)cc1 | inactive: 2.98%
34 | Cc1cc(/C=N/NC(=O)Cn2c3ccccc3c(=O)c3ccccc32)c(C)n1-c1ccc(Cl)cc1 | inconclusive: -50.9%
35 | Cc1c(NC(=O)C(C)Sc2ccccc2)c(=O)n(-c2ccccc2)n1C (configuration not stated) | inconclusive: -47.8%
36 | CC1CC(=O)Nc2ccccc2N1C(=O)COc1ccc2cc(Br)ccc2c1 (configuration not stated) | inconclusive: -50.4%
37 | O=[N+]([O-])c1c(-c2ccccc2)[nH]c2ccccc12 | inconclusive: -47.9%
38 | CCc1nc2c(OCc3cccc(Cl)c3)cccn2c1N(C)C(=O)CC(C)C | inconclusive: -42.4%

Another view of some results above:
Row	SMILES	activity change, negative = inhibition
32	Cn1cc(CN2CCC(C(=O)Nc3cccc(-c4cscn4)c3)CC2)cn1	inconclusive: -45.9%
33	COc1ccc(-c2cn(CCN)c(-c3ccncc3)n2)cc1	inactive: 2.98%
34	Cc1cc(/C=N/NC(=O)Cn2c3ccccc3c(=O)c3ccccc32)c(C)n1-c1ccc(Cl)cc1	inconclusive: -50.9%
35	Cc1c(NC(=O)C(C)Sc2ccccc2)c(=O)n(-c2ccccc2)n1C (configuration not stated)	inconclusive: -47.8%

Continuation.

Row | SMILES | activity change, negative = inhibition
39 | NC(=O)c1cccnc1Nc1cccc([N+](=O)[O-])c1 | inactive: 28.6%
40 | Cc1ccc(NC(=O)c2ccc(Cl)c(S(=O)(=O)N3CCCCCC3)c2)nc1 | active: -68.3%
41 | Cc1ccc(OCCOc2ccc(Cl)cc2Cl)c([N+](=O)[O-])n1 | inactive: -1.75%
42 | CCn1c(NC(=O)c2cccc(Cn3cc(Cl)cn3)c2)nc2ccccc21 | active: -68.3%
43 | Cc1cc(CNC(=O)COc2ccc(F)cc2)c2ccccc2n1 | inconclusive: -47%
44 | Cc1nc2nncn2c(N2CCN(c3ccccc3)CC2)c1C | active: -74.5%
45 | CCn1cc(CNCc2cn(C)nc2-c2ccc(C3CCCCC3)cc2)cn1 | inactive: -0.897%
46 | CCCCC(=O)Nc1cc(OCC)c(NC(=O)c2ccccc2[N+](=O)[O-])cc1OCC | inconclusive: -46.7%
47 | Oc1ccc(COCc2ccccc2)c2cccnc12 | active: -98.7%
48 | Cc1ccc(N=C2NC(=O)/C(=C/c3cn(C)c4ccccc34)S2)cc1C | inconclusive: -53.9%
49 | CN1CC[C@]23c4c5ccc(O)c4OC2C(O)C=CC3[C@H]1C5 (some centres not stated) | inconclusive: -44.2%
50 | COc1ccc(S(=O)(=O)N2CCCCC2)cc1NC(=O)c1ccc(C)cc1 | inconclusive: -51.8%
51 | O=C(CSc1nccc(=O)[nH]1)N1CCCc2ccccc21 | inconclusive: -44.3%
52 | CCCCCCNC(=O)Cc1ccc(Br)cc1 | inconclusive: -43.5%
53 | COCCC(=O)N1CCc2ccc(NC(=O)c3ccc(C(F)(F)F)cc3)cc2C1 | active: -64.7%
54 | CCN(CC)CCNC(=O)C12CC3CC(C)(CC(C)(C3)C1)C2 | inconclusive: -42.9%
55 | O=C(COC(=O)/C=C/c1ccccc1Cl)NC1CC1 | inactive: -12.9%
56 | CCc1ccc(N2C(=O)NC(=O)/C(=C\C=C\c3ccco3)C2=O)cc1 | active: -76.6%
57 | N#CC1=C(N)Oc2c(ccc3cccnc23)C1c1cccnc1 (configuration not stated) | active: -99.4%
